In the supplement of paper PMC10849652:
Some of the results follow.

Chains of the proteins cited; added tags and fusions are not shown. Lines headed by an entry give the natural chain unless they say otherwise; changes in a name come on top.
UniProt P48449: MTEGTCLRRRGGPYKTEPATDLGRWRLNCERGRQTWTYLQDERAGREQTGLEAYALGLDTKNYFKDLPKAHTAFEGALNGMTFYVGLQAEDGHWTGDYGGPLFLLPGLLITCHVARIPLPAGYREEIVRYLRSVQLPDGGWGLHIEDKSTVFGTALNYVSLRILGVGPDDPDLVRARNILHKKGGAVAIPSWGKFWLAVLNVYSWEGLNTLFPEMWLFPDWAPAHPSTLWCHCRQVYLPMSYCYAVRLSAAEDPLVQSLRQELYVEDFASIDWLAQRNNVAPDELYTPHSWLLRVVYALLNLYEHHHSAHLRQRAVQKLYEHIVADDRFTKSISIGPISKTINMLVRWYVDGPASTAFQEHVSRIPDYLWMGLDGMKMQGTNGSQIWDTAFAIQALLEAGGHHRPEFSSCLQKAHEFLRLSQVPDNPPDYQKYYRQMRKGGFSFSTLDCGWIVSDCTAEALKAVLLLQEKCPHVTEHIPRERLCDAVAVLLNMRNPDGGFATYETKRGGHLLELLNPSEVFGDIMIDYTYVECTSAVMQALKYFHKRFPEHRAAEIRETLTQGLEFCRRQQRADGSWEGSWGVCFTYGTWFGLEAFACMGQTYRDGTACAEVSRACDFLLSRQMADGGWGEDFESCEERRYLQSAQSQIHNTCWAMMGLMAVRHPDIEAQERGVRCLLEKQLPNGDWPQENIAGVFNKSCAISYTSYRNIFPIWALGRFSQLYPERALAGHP
UniProt P53778: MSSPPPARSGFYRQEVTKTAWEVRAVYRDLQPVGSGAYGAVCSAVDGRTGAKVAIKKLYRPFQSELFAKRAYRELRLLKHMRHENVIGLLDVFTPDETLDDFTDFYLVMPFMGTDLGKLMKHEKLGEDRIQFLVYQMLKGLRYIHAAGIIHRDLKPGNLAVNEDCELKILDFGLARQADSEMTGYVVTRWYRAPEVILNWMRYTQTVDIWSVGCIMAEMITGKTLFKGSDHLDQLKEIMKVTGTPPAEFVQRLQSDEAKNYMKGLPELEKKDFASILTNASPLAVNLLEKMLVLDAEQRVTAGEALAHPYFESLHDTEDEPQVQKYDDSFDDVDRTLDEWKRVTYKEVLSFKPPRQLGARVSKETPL
UniProt Q9Y4Z0: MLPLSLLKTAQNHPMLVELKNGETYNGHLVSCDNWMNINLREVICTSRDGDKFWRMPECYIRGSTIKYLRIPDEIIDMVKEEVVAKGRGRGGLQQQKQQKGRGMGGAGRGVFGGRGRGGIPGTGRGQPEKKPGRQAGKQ
UniProt P56192: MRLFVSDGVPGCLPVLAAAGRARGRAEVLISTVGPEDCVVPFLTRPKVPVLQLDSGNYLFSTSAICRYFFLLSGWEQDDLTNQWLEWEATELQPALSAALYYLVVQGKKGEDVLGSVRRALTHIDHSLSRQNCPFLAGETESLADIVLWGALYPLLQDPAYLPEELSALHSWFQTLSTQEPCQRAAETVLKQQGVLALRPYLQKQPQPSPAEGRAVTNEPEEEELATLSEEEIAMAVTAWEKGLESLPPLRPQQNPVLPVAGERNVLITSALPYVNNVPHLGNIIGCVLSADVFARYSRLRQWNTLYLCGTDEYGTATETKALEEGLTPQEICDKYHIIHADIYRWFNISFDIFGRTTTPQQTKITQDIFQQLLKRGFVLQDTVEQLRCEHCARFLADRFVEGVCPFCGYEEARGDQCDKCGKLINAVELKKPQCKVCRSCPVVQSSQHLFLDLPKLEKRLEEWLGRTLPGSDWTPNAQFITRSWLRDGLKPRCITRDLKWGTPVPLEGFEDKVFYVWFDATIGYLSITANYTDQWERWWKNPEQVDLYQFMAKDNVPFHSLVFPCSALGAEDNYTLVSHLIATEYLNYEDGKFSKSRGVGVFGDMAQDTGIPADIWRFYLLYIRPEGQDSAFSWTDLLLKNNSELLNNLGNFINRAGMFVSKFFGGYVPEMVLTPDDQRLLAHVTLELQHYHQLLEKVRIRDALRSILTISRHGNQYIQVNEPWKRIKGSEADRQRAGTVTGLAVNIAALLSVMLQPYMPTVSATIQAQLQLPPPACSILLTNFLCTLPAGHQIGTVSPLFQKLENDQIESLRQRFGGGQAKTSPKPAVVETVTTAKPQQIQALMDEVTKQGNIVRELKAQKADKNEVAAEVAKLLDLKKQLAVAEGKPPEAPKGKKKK
UniProt P20645: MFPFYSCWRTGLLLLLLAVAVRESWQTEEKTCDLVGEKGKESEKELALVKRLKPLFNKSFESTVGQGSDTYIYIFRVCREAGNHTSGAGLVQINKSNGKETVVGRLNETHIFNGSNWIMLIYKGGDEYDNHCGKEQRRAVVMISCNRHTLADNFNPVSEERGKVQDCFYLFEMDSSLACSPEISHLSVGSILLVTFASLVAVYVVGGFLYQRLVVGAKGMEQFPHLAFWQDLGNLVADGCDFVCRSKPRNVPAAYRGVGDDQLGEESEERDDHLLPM
UniProt Q12851: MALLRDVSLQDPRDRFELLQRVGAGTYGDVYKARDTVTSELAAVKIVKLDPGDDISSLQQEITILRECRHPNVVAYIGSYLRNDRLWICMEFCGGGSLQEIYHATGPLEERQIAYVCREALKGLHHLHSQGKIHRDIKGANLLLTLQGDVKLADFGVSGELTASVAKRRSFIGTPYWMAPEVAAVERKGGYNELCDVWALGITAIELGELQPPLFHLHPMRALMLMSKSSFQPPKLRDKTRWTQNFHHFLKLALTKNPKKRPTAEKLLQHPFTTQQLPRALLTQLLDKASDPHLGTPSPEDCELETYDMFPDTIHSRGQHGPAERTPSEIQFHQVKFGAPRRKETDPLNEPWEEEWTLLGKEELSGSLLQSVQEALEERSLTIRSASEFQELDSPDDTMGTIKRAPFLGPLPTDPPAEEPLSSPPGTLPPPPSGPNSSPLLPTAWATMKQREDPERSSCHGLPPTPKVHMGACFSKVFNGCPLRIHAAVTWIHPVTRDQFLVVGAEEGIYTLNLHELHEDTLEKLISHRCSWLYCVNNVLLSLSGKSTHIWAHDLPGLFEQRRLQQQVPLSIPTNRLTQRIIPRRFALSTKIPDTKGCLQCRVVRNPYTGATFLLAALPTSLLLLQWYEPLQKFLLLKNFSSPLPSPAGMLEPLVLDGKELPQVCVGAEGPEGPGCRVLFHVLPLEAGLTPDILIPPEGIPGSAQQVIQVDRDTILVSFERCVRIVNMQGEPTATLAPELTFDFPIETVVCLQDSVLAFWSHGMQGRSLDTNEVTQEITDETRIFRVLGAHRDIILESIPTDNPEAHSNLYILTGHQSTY
UniProt Q16644, whole entry, looked up: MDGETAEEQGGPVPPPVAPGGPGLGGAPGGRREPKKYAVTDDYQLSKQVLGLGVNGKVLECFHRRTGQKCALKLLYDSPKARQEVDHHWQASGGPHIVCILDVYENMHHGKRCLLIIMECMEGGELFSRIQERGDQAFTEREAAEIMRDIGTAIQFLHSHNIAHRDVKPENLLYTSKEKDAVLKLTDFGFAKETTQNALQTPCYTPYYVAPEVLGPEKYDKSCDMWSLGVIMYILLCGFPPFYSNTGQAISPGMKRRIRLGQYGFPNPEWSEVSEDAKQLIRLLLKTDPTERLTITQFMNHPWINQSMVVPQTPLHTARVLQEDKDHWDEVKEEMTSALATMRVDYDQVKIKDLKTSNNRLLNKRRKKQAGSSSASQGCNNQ
UniProt Q9BX40: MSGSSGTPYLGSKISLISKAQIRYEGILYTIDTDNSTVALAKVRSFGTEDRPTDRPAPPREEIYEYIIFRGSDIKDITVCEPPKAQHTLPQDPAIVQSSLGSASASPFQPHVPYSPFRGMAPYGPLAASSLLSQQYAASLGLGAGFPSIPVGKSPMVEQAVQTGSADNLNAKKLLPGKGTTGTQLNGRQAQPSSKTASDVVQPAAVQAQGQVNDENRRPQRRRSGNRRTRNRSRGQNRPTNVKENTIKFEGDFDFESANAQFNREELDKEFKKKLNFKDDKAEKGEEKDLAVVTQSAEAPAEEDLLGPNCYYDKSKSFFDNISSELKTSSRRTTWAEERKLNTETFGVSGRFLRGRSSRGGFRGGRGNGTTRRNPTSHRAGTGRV

Assays:
Test in all cases: log2 fold change, soluble protein after heating vs DMSO (PISA); higher = thermal stabilisation; K562 cells, 10 uM, 30 min; active = over 0.2 and 3.5 SD of the protein, either way, in both replicates (recomputed)
[1] = compound: C1=CC=C(C=C1)[C@H](COC2=CC3=C(C=C2)NC(=O)N3)NC(=O)C4=CC=CN(C4=O)CC5=CC(=C(C=C5)F)F
Method in brief: (§1)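 For each measurement, 10 μM compound was applied for 30 min to K562 cells at 2×10^6 cells/mL. Aliquots were heated for 3 min across 48°C-58°C, pooled, and extracted in PBS with 0.5% NP-40 at 4°C; the supernatant after 21,000xg for 90 min was soluble protein. This was quantified by TMTpro 16plex LC-MS/MS with channel sums equalised, and thermal stability was reported relative to control samples from duplicates, on a log2 fold-change scale.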

[2] = compound: CC1=C(SC2=C1C(=N[C@H](C3=NN=C(N32)C)CC(=O)N)C4=CC=C(C=C4)Cl)C
Method in brief: as §1

[3] = compound: CC1=C2C(=CC=C1)N=C(N(C2=O)C3=CC=CC=C3C)CN4C=NC5=C(N=CN=C54)N
Method in brief: as §1

[4] = compound: Cc1sc2c(c1C)C(c1ccc(Cl)cc1)=N[C@@H](CC(=O)OC(C)(C)C)c1nnc(C)n1-2
Method in brief: as §1

[5] = compound: c1ccc([C@@H]2C[C@H]2NC2CCNCC2)cc1
Method in brief: as §1

Measured: log2 fold change

LSS (UniProt P48449)
inactive: [1] -0.077 | [2] 0.059 | [3] 0.127 | [4] -0.018 | [5] 0.087

MAPK12 (UniProt P53778)
inactive: [1] -0.022 | [2] 0.017 | [3] 0.026 | [4] 0.008 | [5] -0.002

LSM4 (UniProt Q9Y4Z0)
inactive: [1] 0.023 | [2] -0.023 | [3] -0.053 | [4] 0.025 | [5] 0.01

MARS (UniProt P56192)
inactive: [1] -0.005 | [2] -0.017 | [3] -0.026 | [4] 0.084 | [5] -0.006

MAP2K2 (UniProt P36507)
inactive: [1] 0.034 | [2] 0.065 | [3] 0.073 | [4] -0.027 | [5] -0.067

M6PR (UniProt P20645)
inactive: [1] 0.012 | [2] 0.005 | [3] -0.006 | [4] -0.055 | [5] 0.001

MAP4K2 (UniProt Q12851)
inactive: [1] -0.08 | [2] 0.063 | [4] -0.057 | [5] 0

MAPKAPK3 (UniProt Q16644)
inactive: [1] -0.122 | [2] 0.013 | [3] 0.027 | [4] -0.034 | [5] -0.109

LSM14B (UniProt Q9BX40)
inactive: [1] -0.066 | [2] 0.03 | [3] 0.03 | [4] 0.099 | [5] -0.155
